# Laboratory results as given in PubChem BioAssay AID1439 (NMMLSC, 2008).
# Protein sequences, listed by entry. Tags and fused reporters are not part of them.
# UniProt P09471, whole entry, looked up: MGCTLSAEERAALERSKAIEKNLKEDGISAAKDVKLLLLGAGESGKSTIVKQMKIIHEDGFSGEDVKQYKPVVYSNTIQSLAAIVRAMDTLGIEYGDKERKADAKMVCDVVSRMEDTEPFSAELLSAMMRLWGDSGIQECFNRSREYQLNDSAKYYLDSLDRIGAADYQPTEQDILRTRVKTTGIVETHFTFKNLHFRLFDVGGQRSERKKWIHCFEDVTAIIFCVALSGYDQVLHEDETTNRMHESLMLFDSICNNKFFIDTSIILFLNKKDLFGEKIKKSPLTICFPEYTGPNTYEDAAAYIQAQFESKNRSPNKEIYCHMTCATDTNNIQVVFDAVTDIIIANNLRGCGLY
# Hit rate of the full screen: of about 220,000 compounds, about 770 (0.35%) were called active. Inconclusive means that the source gave no clear call. Such entries were picked first, then a sample of the others. Rule as the data show it: active = binding response below about 49% or above about 150%; inconclusive = no clear call, values can overlap the other calls; inactive = in between.
# Biological target: Guanine nucleotide-binding protein G(o) subunit alpha (Homo sapiens) (UniProt P09471)
# Assay: RGS7-Galphao binding modulators, primary screen, biochemical, multiplexed bead flow cytometry (AID 1439);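 also: fluorescent Galphao held in activated GDP-AlF4 state binding bead-coupled RGS7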
# Settings: at 10 µM, actives lie on both sides
row,SMILES,binding response (% of control)
1,COC(=O)c1ccc(=O)c2nc3/c(=C/O)c(O)cc(=O)c3[nH]c12,inconclusive: 50%
2,CCCCCC(=O)NN1C(=S)N(c2ccc(OC)cc2)C(=O)C1CC(=O)Nc1ccccc1 (stereo unspecified),inconclusive: 89.1%
3,O=C(NCc1ccccc1)C1CCC1,inactive: 95.6%
4,Cc1onc(-c2c(F)cccc2Cl)c1C(=O)NC(=S)NC1CCS(=O)(=O)C1 (stereo unspecified),inactive: 102%
5,Cc1csc2ncnc(NNC(=O)c3ccc(Cl)cc3)c12,inconclusive: 94%
6,CCC(=O)N1CCN(c2ccnc3cc(Cl)ccc23)CC1,inconclusive: 81.6%
7,COc1ccc(N2CCN(C(=O)C3CCN(S(=O)(=O)c4ccc(C)cc4)CC3)CC2)cc1,inconclusive: 102%
8,Cc1noc(C)c1CCC(=O)N1CCCC(CCC(=O)NCc2ccccc2F)C1 (stereo unspecified),inactive: 95.6%
9,O=C(Nc1cccnc1)C1CCN(S(=O)(=O)c2cccs2)CC1,inconclusive: 75.6%
10,Cc1cc(-c2nnc(-c3cccc(Cl)c3)o2)no1,inconclusive: 463%
11,Nc1nnc(SCC(=O)Nc2ccccc2)s1,inconclusive: 101%
12,COc1ccc(Cc2[nH]n3c(=O)cc(C(C)C)nc3c2-c2ccccc2)cc1,inactive: 101%
13,COc1cc(-c2cc3nc4ccccc4n3c(N)c2C#N)cc(OC)c1OC,inconclusive: 94.5%
14,Cc1cccc(CNc2ccc(C(CC(N)=O)NC(=O)Cc3cccc4ccccc34)cc2[N+](=O)[O-])c1 (stereo unspecified),inconclusive: 111%
15,COc1ccc(NC(=O)C(c2ccccc2)c2ccccc2)cn1,inconclusive: 96.5%
16,Cn1c[n+](C)cc1-c1ccc(/C(N)=N/O)cc1,inactive: 109%
17,NNC(=O)CNC(c1ccccc1)c1cc(Br)ccc1N (stereo unspecified),inconclusive: 92.8%
18,CC(C)(C)OC(=O)N1CCC(c2cc(=O)n3[nH]cc(C(=O)Nc4ccc(F)c(Cl)c4)c3n2)CC1,inconclusive: 84.4%
19,Cc1ccc(-n2c(SCC(=O)N3CCOCC3)nnc2-c2ccncc2)cc1C,inconclusive: 106%
20,CCN(CC)C(=O)Oc1ccc(Br)cc1C(=O)Nc1ccc(F)c(Cl)c1,inconclusive: 118%
21,O=c1n(Cc2ccccc2)nc2n1-c1ccccc1SC2,inconclusive: -43.8%
22,CCOC(=O)c1cc(C#N)c(N2CCN(C(=O)c3cccc(C(F)(F)F)c3)CC2)nc1C(F)(F)F,inconclusive: -149%
23,CS(=O)(=O)NCCNc1ncc(C(F)(F)F)cc1Cl,inconclusive: 109%

row,SMILES,binding response (% of control)
1,COc1ccc2cc(C(=O)C3CCCN(C(=O)CCc4cnn(C)c4)C3)ccc2c1 (stereo unspecified),inactive: 104%
2,COc1ccc(CNC(=O)c2sc3nc4c(c(C(F)(F)F)c3c2N)CCC4)cc1OC,inactive: 109%
3,O=C(Cc1n[nH]c(=O)c2ccccc12)NC(c1ccccc1)c1ccccc1,inconclusive: 101%
4,N#CNc1nc(O)cc(=O)[nH]1,inconclusive: 118%
5,COc1ccc(C(=O)CSc2nc3ncccc3[nH]2)cc1OC,inconclusive: 52.5%
6,CCNC(=O)COC(=O)Cc1ccc(Cl)cc1Cl,inactive: 96%
7,CCOc1ccccc1NC(=S)NCCc1ccccc1,inconclusive: 91%
8,CS(=O)(=O)N(CCC#N)Cc1ccco1,inactive: 99.9%
9,COc1ccc(-c2nn(-c3ccccc3)cc2/C=C/C(=O)O)cc1[N+](=O)[O-],inconclusive: 211%
10,S=C(NNC(=S)NC1CC2C=CC1C2)NC1CC2C=CC1C2 (stereo unspecified),inconclusive: 106%
11,COc1ccc2[nH]c(=O)c(CNc3ccccc3OC)cc2c1,inconclusive: 863%
12,CCC1=NN2C(=N)/C(=C/c3cc(C)n(Cc4ccccc4)c3C)C(=O)N=C2S1,inconclusive: 43.3%
13,C=CCNC(=S)NNC(=O)c1cccnc1,inconclusive: 69.9%
14,Cc1nnc(N2C(=O)C(O)=C(C(=O)c3ccco3)C2c2cccc3ccccc23)s1 (stereo unspecified),inconclusive: 127%
15,Cc1cccc(NC(=S)NCC(c2cccnc2)N(C)C)c1 (stereo unspecified),inactive: 104%
16,Cc1ccc(OCC(=O)N/N=C/C=C/c2ccco2)cc1C,inactive: 64.8%
17,O=C(/C=C/C(=O)N1CCc2ccccc2C1)N1CCc2ccccc2C1,inconclusive: 136%
18,CCN(CC)c1ccc(NC(=O)Cn2nnc(-c3cccc(OC)c3OC)n2)c(C)c1,inactive: 95.1%
19,O=C(/C=C/c1ccccc1Cl)Nc1ccccc1,inconclusive: -6.31%
20,O=C1S/C(=C/c2ccc(N3CCOCC3)o2)C(=O)N1Cc1c(F)cccc1Cl,inactive: 107%
21,CCNc1nc(NCC)n2c(SCC(=O)O)nnc2n1,inactive: 102%
22,CC1CCC/C(=N\NS(=O)(=O)c2ccccc2)C1 (stereo unspecified),inconclusive: 96.1%
23,COc1ccc(F)cc1S(=O)(=O)N1CC(C)CC(C)C1 (stereo unspecified),inactive: 102%

# Compounds above that have two or more sulfur atoms (4):
row,SMILES,binding response (% of control)
4,Cc1onc(-c2c(F)cccc2Cl)c1C(=O)NC(=S)NC1CCS(=O)(=O)C1 (stereo unspecified),inactive: 102%
9,O=C(Nc1cccnc1)C1CCN(S(=O)(=O)c2cccs2)CC1,inconclusive: 75.6%
11,Nc1nnc(SCC(=O)Nc2ccccc2)s1,inconclusive: 101%
10,S=C(NNC(=S)NC1CC2C=CC1C2)NC1CC2C=CC1C2 (stereo unspecified),inconclusive: 106%
